In the supplement of paper PMC4371806:
In all, about 2,300 compounds were measured (“plate-normalized OD600 growth (mean of duplicates)”: median about 0.29, lowest 2% from about 0.22 on). Some of the results follow.

System: Escherichia coli BW25113
Experiment: plate-normalized OD600 growth (mean of duplicates) (OD600 (normalized)); higher = more growth (less inhibition)
Details: 10 µM
Description: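 E. coli BW25113 in LB (100 µl, 96-well, no shaking) was exposed to 10 µM of each compound from a ~30,000-member library and grown at 37°C for 24 h or 15°C for 48 h, in duplicate. Growth was read as OD600 and the duplicate ODs were normalized across screening plates to correct plate-to-plate variation. Hits were >3σ below the mean OD600 at 15°C and <2σ below the mean at 37°C.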

Structure (SMILES) | plate-normalized OD600 growth (temperature: 15°C, 48 h) | plate-normalized OD600 growth (temperature: 37°C, 24 h)
C=CCNC(=S)Nc1sc(C)c(C)c1C(=O)OCC | 0.226 | 0.637
Cc1c(-c2ccnc(N)n2)nnn1-c1ccc(Cl)cc1Cl | 0.242 | 0.636
CN(C)c1ccc(/C=C/c2cc[n+](C)n2C)cc1 | 0.242 | 0.607
N#CCC(=O)N(Cc1ccccc1F)C(=O)NC1CCCCC1 | 0.263 | 0.647
Cc1cc(/C=N/NC(N)=S)c2c(C)ccc(C(C)C)cc1-2 | 0.23 | 0.606
Nc1ccc(-c2nc3ccc(C(=O)c4ccccc4)cc3[nH]2)cc1 | 0.245 | 0.61
Cn1c(NC(=O)c2ccccc2Cl)nc2ccccc21 | 0.253 | 0.598
Cc1ccc(S(=O)(=O)Nc2ccc(C)c([N+](=O)[O-])c2)cc1 | 0.233 | 0.624
COC(=O)c1ccc(NCC(=O)c2ccc(C(C)(C)C)cc2)cc1 | 0.237 | 0.627
Cc1c(C)n(Cc2ccccc2)c2ccc(C(=O)Nc3ncn[nH]3)cc12 | 0.248 | 0.653
C/C(Cn1nnc([N+](=O)[O-])n1)=N/NC(=O)c1cccnc1 | 0.252 | 0.62
COC(=O)c1cc(-c2ccc3c(c2)OCO3)no1 | 0.232 | 0.626
Cc1cc(Br)c2c(c1)c(N=NC(=Nc1ccccc1)c1ccccn1)c(O)n2C | 0.254 | 0.628
Cc1ccc(-c2csc(-c3cccnc3)n2)cc1C | 0.24 | 0.613
CCCOc1ccc(N2C(=O)CC(NNC(=O)c3ccncc3)C2=O)cc1 (stereo unspecified) | 0.221 | 0.621
CCNS(=O)(=O)c1cc(Cl)sc1Cl | 0.253 | 0.623
O=[N+]([O-])c1ccc(-c2ccc(/C=N/Nc3ccccc3)o2)cc1 | 0.235 | 0.584
O=C(N/N=C/c1c2ccccc2cc2ccccc12)c1cccc(C(F)(F)F)c1 | 0.259 | 0.608
CCC(=O)Nc1nc2ccc(C)cc2s1 | 0.246 | 0.603
COc1cc(C2OC(c3cc(C)ccc3[N+](=O)[O-])=NN2C(C)=O)cc(OC)c1OC (stereo unspecified) | 0.248 | 0.619
O=C(NNC(=O)c1ccccc1OCc1ccccc1)c1ccc(Cl)c(Cl)c1 | 0.216 | 0.606
O=C(/C=N/O)Nc1ccccc1C(=O)O | 0.249 | 0.636
N#C/C(=C/c1ccc(-c2ccc(Cl)c(Cl)c2)o1)c1[nH]nc(N)c1C#N | 0.257 | 0.623
CNc1nc(C)c(-c2nc(Nc3cccc(S(N)(=O)=O)c3)ncc2F)s1 | 0.255 | 0.611
CCOc1nn(-c2ccccc2)c(NC2CCCCC2)c1C(F)(F)F | 0.235 | 0.609
Nc1ccc2nonc2c1N | 0.246 | 0.624
CCOC(=O)C1C(=O)C=C(c2cccs2)CC1c1ccc(OC)c(OC)c1Cl (stereo unspecified) | 0.247 | 0.621
O=C(COc1ccc(C(F)(F)F)cc1[N+](=O)[O-])Nc1cccc(C(F)(F)F)c1 | 0.264 | 0.633

Record cards (already shown).
`Nc1ccc2nonc2c1N` in the list: plate-normalized OD600 growth (temperature: 15°C, 48 h): 0.246; plate-normalized OD600 growth (temperature: 37°C, 24 h): 0.624
`COc1cc(C2OC(c3cc(C)ccc3[N+](=O)[O-])=NN2C(C)=O)cc(OC)c1OC` (stereo unspecified) in the list: plate-normalized OD600 growth (temperature: 15°C, 48 h): 0.248; plate-normalized OD600 growth (temperature: 37°C, 24 h): 0.619
